Assay results from PubChem BioAssay AID1439 (NMMLSC, 2008).
The campaign covered roughly 220,000 compounds. About 770 (0.35%) were called active. This list was built around the results that the source calls inconclusive (neither active nor inactive); the mix of calls is not that of the screen. No stated cut-off is given here; in the data, active means binding response below about 49% or above about 150%; inconclusive means no clear call, values can overlap the other calls; inactive means in between.

Chains of the proteins cited; added tags and fusions are not shown.
UniProt P09471, whole entry, looked up: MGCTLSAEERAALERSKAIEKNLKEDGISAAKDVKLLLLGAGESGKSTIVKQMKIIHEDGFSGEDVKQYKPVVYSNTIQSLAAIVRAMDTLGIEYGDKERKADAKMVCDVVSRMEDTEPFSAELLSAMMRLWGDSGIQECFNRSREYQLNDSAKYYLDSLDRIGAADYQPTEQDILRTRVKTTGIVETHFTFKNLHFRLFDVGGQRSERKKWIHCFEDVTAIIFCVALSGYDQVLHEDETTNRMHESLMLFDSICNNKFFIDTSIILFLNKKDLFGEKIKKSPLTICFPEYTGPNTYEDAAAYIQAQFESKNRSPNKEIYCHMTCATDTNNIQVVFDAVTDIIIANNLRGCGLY

Molecular target: Guanine nucleotide-binding protein G(o) subunit alpha (Homo sapiens) (UniProt P09471)
Experiment: RGS7-Galphao binding modulators, primary screen, biochemical, multiplexed bead flow cytometry (AID 1439);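 further: fluorescent Galphao held in activated GDP-AlF4 state binding bead-coupled RGS7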
Details: at 10 µM, actives lie on both sides

SMILES | binding response (% of control)
CN(C)c1nc(N(C)C)n(C(=O)c2cccs2)n1 | inconclusive: 114%
O=C1[C@@H]2C(c3ccc(F)cc3)=NO[C@@H]2C(=O)N1Cc1ccccc1 | inconclusive: 114%
CCSc1ncc(CO)c(N)n1 | inconclusive: 65.9%
Cn1cc(C2N3CC4(C)CN2CC(C)(C3)C4=O)c2ccccc21 (configuration not stated) | inactive: 104%
Cc1ccc(-n2nnnc2-c2cccc(C)c2)cc1 | inconclusive: 83.5%
O=C(C1=NN[C@@H]2C(=O)N(c3cccc(F)c3)C(=O)[C@H]12)c1cnccn1 | inconclusive: 61.2%
Cc1ccc(NC(=O)CN(C)C(=O)CCOc2cccc(C)c2)cc1 | inactive: 96.1%
COc1ccc2cc(C3CC(c4ccco4)=NN3S(C)(=O)=O)c(Cl)nc2c1 (configuration not stated) | inconclusive: 101%
O=C(CSc1ccc(F)cc1)N1CCN(S(=O)(=O)c2ccccc2)CC1 | inconclusive: 120%
Cn1c(N)c(C(=O)COC(=O)C2=NNC(=O)CC2)c(=O)n(C)c1=O | inconclusive: 198%
Cc1ccc(CN2CCN(C(=O)C3CCCO3)CC2)cc1 (configuration not stated) | inactive: 101%
Cc1nc(-c2cc(C#N)c(Sc3ccc(Cl)cc3Cl)nc2C)cs1 | inconclusive: 377%
O=C(Cc1cccc2ccccc12)NN1C(=O)/C(=C\c2cccnc2)SC1=S | inconclusive: 113%
CCN(CC)S(=O)(=O)c1cccc(-c2nnc(SCC(N)=O)n2N)c1 | inconclusive: 97%
Cc1ccc(OCC(=O)N/N=C/c2ccncc2)cc1C | inconclusive: 124%
O=C(Nc1nn[nH]n1)c1cc(-c2ccc(Cl)c(Cl)c2Cl)nc2ccccc12 | inconclusive: 108%
Cc1ccsc1C(=O)OC1CCOC1=O (configuration not stated) | inactive: 89.4%
Cc1cc(SCC(=O)Nc2ccccc2)n2ncc(-c3ccccc3)c2n1 | inconclusive: 102%
Cc1noc(C)c1NC(=O)NCCN1CCN(Cc2ccccc2)CC1 | inconclusive: 110%

SMILES | binding response (% of control)
CC(C)=NOC(=O)c1ccc(-c2ccccc2)cc1 | inactive: 102%
O=C(NC(=S)Nc1cccc(S(=O)(=O)NC2=NCCC2)c1)c1cc(-c2ccco2)nc2ccccc12 | inconclusive: 86.1%
O=C(O)CC(CC(=O)Nc1ccc2ccccc2n1)c1ccccc1 (configuration not stated) | inconclusive: 117%
CCOc1cccc(/C=N/NS(=O)(=O)c2ccc(C)c([N+](=O)[O-])c2)c1O | inconclusive: 102%
O=C1C(Br)=Cc2cccc3cccc1c23 | inconclusive: 105%
CCCOc1ccc(C2C3=C(Nc4nc(N)[nH]c(=O)c42)c2ccccc2C3=O)cc1 (configuration not stated) | inconclusive: 86.9%
O=C(N/N=C/c1ccccn1)c1cccc(S(=O)(=O)N2CCCC2)c1 | inconclusive: 88.9%
O=C(O)c1c2c(nc3ccccc13)/C(=C/c1ccc(O)cc1)CC2 | inconclusive: 94.4%
COC(=O)[C@@H]1C[C@@]2(O)[C@H](O)[C@H](O)[C@H](O)C[C@H]2N1Cc1ccc(C(F)(F)F)cc1 | inconclusive: 87.3%
Cc1sc2nc(COC(=O)CNC(=O)c3ccc(C(C)(C)C)cc3)[nH]c(=O)c2c1C | inactive: 89.1%
CCN(CC)S(=O)(=O)c1ccc2c(c1)nc(CCC(=O)Nc1ccc3c(c1)OCO3)n2CC | inactive: 88.2%
N=C1/C(=C\c2coc3ccc(O)cc3c2=O)C(=O)N=C2SC=CN12 | inconclusive: 108%
COc1ccc(CCN2CC(C(=O)NCc3ccc(F)cc3)CC2=O)cc1OC (configuration not stated) | inconclusive: -1.63%
Cn1nccc1NC(=O)Nc1cccc(Cl)c1Cl | inconclusive: 89.4%
O=C(NC(Cc1c[nH]c2ccccc12)C(=O)NCCCN1CCOCC1)c1cccs1 (configuration not stated) | inconclusive: 103%
Cc1ccc(-n2c(SCC(=O)NCCN3C(=O)CSC3=O)nnc2-c2ccccc2)cc1 | inactive: 87%
CC(=O)/C(N=Nc1ccc(-n2ccc(C(F)(F)F)n2)cc1)=C(\C)O | inconclusive: 352%
Cc1ccc(C)c(-n2nnnc2SCC(=O)c2c(N)n(C)c(=O)n(C)c2=O)c1 | inconclusive: 96.2%
CCCCC(CC)C(=O)Nc1ccc(C)c(O)c1 (configuration not stated) | inactive: 100%

Reprinted at random: 2 records from the list, in no set order.
SMILES | binding response (% of control)
CCN(CC)S(=O)(=O)c1ccc2c(c1)nc(CCC(=O)Nc1ccc3c(c1)OCO3)n2CC | inactive: 88.2%
Cc1ccc(C)c(-n2nnnc2SCC(=O)c2c(N)n(C)c(=O)n(C)c2=O)c1 | inconclusive: 96.2%

(next part)

SMILES | binding response (% of control)
COc1ccc(Cl)cc1NC(=O)NCCN1CCCCC1 | inconclusive: 91.5%
O=C(/C=C/c1ccc2c(c1)OCO2)c1ccccn1 | inconclusive: 105%
CCOC(=O)c1sc(S(C)(=O)=O)c2c1CCc1conc1-2 | inconclusive: -335%
CC(C)(C)SCCNC(=O)c1ccc(Cl)c([N+](=O)[O-])c1 | inactive: 101%
CN(C)/C=C(\C=O)c1ccc(Cl)cc1Cl | inactive: 95.4%
Cc1cccc(Nc2nc(N)c([N+](=O)[O-])c(NCCO)n2)c1 | inconclusive: 138%
CCCc1nc2oc3c(Cl)ncnc3c2c2c1CCCC2 | inconclusive: 103%
BrC(/C=C\c1ccccc1)=N/Nc1nc(N2CCOCC2)nc(N2CCOCC2)n1 | inconclusive: 95.7%
COc1cc2[nH]c3ccccc3c2cc1C | inconclusive: 108%
O=C(CC1C(=O)NCCN1Cc1cccc(Oc2ccccc2)c1)NCCCn1cccn1 (configuration not stated) | inactive: 99.5%
Cc1ccc2c(c1)C1CN(C)CCC1N2C(=O)COc1ccc(N(C)S(=O)(=O)c2cccs2)cc1 (configuration not stated) | inconclusive: -434%
Cc1cc(C)n(-c2ccc(S(N)(=O)=O)cc2[N+](=O)[O-])n1 | inconclusive: 98.4%
CCOc1cc(C(=O)NC(C)C2CCCO2)cc(OCC)c1OCC (configuration not stated) | inconclusive: 97.5%
S=c1[nH]ncn1/N=C/c1cccs1 | inconclusive: 94.7%
CC(C)C(Nc1ccc(C(F)(F)F)cc1[N+](=O)[O-])C(=O)O (configuration not stated) | inconclusive: 86.3%
Cc1ccc(C(=O)N2CCC3(CC2)Oc2ccc(Cl)cc2C(=O)C32CC(c3ccccc3)=NO2)s1 (configuration not stated) | inconclusive: 91.6%
COCCNC(=O)c1cc(S(=O)(=O)N(C)c2ccccc2OC)ccc1C | inconclusive: 106%
Cn1nccc1NC(=O)CC(CC(=O)O)c1ccccc1 (configuration not stated) | inconclusive: 81.6%
COc1ccc(C2CC(O)(c3ccccc3)Oc3cc(OC)ccc32)cc1 (configuration not stated) | inconclusive: 110%

Structures shown so far that contain a Cl atom, in the order listed:
SMILES | binding response (% of control)
COc1ccc2cc(C3CC(c4ccco4)=NN3S(C)(=O)=O)c(Cl)nc2c1 (configuration not stated) | inconclusive: 101%
Cc1nc(-c2cc(C#N)c(Sc3ccc(Cl)cc3Cl)nc2C)cs1 | inconclusive: 377%
O=C(Nc1nn[nH]n1)c1cc(-c2ccc(Cl)c(Cl)c2Cl)nc2ccccc12 | inconclusive: 108%
Cn1nccc1NC(=O)Nc1cccc(Cl)c1Cl | inconclusive: 89.4%
COc1ccc(Cl)cc1NC(=O)NCCN1CCCCC1 | inconclusive: 91.5%
CC(C)(C)SCCNC(=O)c1ccc(Cl)c([N+](=O)[O-])c1 | inactive: 101%
CN(C)/C=C(\C=O)c1ccc(Cl)cc1Cl | inactive: 95.4%
CCCc1nc2oc3c(Cl)ncnc3c2c2c1CCCC2 | inconclusive: 103%
Cc1ccc(C(=O)N2CCC3(CC2)Oc2ccc(Cl)cc2C(=O)C32CC(c3ccccc3)=NO2)s1 (configuration not stated) | inconclusive: 91.6%
